Measurements as given in the supplement of paper PMC10849652.
The other results are listed elsewhere or left out.

By UniProt entry, the sequences of proteins in these tests, tags left out. Where a name states a change or a piece, a line headed by the entry shows the natural chain unless it says otherwise.
UniProt Q01167: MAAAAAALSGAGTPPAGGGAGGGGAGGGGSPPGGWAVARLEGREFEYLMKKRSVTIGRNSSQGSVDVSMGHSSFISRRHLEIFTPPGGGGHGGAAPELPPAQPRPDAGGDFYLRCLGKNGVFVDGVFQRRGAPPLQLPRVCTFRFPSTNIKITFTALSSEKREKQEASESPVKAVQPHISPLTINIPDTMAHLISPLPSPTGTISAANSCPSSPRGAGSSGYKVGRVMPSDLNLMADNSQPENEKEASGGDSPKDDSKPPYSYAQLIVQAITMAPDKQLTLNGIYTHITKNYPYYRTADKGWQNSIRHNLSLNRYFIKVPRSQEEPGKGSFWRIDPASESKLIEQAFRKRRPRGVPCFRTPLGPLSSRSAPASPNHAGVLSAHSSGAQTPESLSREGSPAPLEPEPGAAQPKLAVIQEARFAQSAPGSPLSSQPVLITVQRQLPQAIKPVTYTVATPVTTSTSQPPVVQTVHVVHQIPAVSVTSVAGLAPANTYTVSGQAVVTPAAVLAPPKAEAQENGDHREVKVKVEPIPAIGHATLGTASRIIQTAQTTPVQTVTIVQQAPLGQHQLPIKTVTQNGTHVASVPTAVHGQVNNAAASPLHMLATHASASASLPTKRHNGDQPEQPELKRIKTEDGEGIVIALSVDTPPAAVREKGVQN
UniProt O14893: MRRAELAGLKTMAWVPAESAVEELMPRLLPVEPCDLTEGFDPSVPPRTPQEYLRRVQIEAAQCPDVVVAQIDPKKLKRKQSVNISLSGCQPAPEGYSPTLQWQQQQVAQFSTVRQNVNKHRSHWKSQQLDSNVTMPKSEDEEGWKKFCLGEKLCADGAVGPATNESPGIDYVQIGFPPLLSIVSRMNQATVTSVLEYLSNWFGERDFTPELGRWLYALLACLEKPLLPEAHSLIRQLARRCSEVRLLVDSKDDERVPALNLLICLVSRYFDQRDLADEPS
UniProt Q8NB37: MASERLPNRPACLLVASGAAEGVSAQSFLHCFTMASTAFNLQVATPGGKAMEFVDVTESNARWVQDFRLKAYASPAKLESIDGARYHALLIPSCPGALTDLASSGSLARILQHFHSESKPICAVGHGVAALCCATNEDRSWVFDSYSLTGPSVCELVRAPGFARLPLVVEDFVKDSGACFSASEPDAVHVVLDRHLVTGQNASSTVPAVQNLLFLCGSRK
UniProt Q8WXI9: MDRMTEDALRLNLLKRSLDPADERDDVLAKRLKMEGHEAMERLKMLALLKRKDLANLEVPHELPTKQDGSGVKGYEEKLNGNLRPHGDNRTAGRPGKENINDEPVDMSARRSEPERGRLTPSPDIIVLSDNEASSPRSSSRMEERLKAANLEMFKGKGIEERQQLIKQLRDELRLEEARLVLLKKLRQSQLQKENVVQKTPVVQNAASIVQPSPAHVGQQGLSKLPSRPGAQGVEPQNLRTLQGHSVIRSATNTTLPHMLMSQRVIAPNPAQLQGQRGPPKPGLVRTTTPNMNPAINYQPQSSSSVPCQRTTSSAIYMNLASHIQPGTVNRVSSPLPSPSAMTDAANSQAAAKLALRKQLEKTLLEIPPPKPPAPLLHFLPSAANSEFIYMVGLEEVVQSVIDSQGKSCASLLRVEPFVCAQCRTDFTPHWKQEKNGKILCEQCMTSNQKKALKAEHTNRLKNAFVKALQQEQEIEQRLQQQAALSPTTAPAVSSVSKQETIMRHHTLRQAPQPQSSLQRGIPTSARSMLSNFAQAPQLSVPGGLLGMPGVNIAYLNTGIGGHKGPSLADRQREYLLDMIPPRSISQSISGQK
UniProt Q9NXN4: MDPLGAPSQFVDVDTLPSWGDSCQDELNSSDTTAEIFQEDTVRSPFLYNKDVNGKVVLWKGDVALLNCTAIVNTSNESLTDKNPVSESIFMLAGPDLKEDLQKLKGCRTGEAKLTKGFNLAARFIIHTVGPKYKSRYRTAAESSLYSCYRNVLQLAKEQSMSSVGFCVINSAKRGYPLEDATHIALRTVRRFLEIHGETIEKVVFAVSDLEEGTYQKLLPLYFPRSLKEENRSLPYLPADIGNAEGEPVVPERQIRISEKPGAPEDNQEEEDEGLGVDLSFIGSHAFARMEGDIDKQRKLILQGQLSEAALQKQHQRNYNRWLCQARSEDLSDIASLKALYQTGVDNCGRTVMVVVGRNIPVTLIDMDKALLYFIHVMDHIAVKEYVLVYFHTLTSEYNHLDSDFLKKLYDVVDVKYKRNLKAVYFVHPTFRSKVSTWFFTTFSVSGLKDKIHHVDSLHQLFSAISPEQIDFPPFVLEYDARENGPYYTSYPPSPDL
UniProt Q96CN9: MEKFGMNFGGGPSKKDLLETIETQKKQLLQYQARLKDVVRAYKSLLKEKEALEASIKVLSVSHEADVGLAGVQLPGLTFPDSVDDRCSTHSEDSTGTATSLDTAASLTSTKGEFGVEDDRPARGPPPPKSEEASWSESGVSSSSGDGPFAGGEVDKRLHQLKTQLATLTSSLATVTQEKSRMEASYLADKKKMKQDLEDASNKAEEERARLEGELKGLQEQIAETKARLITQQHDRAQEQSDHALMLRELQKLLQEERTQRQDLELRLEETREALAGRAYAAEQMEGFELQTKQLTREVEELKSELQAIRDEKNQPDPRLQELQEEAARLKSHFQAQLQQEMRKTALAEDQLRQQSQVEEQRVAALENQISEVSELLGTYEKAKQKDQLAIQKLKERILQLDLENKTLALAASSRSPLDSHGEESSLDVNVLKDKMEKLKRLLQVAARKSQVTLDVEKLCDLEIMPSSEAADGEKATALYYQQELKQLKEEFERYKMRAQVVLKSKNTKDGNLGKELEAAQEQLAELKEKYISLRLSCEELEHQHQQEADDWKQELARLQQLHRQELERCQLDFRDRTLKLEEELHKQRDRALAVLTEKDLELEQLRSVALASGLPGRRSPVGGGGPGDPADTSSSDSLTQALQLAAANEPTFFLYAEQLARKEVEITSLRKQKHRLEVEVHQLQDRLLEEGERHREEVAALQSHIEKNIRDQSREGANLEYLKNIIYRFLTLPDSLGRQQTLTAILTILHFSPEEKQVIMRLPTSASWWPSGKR
UniProt P54803: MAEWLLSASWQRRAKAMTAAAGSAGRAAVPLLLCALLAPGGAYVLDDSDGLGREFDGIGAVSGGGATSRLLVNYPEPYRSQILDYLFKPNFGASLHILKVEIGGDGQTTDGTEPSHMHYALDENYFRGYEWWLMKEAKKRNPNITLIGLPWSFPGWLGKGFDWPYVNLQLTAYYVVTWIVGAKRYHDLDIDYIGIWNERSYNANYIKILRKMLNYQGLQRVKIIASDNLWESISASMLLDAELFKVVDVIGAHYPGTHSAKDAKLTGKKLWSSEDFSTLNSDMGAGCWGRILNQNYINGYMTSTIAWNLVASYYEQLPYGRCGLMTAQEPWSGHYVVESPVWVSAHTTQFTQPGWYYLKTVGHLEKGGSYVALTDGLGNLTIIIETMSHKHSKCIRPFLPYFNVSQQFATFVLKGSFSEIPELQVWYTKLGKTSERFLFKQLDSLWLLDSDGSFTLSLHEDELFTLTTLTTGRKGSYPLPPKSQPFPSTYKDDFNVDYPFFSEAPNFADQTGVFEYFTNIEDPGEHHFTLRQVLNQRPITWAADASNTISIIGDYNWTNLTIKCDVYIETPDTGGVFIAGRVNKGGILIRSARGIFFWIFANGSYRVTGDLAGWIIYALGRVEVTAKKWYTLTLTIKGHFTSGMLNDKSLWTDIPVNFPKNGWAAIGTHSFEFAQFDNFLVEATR
UniProt Q70Z53: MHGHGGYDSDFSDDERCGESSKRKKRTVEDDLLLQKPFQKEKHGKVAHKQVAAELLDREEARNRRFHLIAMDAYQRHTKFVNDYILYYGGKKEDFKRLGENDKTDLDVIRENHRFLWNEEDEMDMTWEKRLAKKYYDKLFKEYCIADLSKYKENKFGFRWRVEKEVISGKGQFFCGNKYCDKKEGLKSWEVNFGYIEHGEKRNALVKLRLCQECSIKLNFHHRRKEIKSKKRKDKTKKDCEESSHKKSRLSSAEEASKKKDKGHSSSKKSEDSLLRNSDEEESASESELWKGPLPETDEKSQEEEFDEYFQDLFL
UniProt Q8IXK2: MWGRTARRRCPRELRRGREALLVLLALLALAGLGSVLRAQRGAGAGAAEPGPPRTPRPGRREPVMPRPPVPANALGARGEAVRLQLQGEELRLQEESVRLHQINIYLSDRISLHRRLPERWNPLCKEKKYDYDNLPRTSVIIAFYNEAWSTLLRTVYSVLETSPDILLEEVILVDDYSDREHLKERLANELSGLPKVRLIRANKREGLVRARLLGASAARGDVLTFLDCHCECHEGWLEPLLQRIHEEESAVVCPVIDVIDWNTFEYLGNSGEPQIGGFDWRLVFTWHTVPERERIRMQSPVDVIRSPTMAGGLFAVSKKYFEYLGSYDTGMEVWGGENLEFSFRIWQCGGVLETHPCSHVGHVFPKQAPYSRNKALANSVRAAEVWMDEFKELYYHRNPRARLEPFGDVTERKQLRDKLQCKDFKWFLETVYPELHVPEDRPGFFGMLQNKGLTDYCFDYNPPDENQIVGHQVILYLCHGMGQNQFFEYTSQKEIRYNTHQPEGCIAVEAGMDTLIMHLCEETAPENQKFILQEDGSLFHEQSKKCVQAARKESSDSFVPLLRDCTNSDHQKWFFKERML
UniProt Q01415: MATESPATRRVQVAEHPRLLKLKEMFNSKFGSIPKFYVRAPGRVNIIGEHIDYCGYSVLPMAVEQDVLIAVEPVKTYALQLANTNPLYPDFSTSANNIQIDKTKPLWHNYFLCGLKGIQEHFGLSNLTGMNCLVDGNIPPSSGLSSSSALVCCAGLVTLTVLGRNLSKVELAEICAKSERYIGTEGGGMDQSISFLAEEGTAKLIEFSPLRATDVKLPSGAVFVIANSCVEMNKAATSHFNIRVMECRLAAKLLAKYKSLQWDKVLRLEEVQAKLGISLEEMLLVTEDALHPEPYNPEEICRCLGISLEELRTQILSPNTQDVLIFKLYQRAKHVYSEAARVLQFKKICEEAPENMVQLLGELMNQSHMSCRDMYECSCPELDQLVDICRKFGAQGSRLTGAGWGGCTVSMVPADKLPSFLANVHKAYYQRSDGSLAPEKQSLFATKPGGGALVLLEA
UniProt Q10472: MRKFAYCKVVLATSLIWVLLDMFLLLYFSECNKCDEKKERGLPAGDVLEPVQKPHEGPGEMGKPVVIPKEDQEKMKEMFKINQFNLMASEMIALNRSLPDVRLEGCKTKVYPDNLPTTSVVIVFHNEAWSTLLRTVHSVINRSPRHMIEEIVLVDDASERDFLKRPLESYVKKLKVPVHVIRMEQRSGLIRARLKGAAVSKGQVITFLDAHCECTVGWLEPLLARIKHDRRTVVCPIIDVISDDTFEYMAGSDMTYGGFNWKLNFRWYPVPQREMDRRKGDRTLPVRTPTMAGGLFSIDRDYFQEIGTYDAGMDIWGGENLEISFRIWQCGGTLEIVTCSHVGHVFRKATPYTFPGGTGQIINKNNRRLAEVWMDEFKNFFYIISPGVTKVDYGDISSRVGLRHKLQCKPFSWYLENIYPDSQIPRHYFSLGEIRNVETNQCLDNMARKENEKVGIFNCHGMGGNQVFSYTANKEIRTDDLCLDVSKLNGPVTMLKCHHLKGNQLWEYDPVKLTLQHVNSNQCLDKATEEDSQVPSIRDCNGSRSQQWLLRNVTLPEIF
UniProt P23434: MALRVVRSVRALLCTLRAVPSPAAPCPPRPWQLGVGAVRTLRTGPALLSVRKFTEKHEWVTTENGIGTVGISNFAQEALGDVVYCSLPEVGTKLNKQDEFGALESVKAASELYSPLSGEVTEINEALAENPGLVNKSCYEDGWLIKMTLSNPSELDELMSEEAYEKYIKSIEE
UniProt Q9UJY4: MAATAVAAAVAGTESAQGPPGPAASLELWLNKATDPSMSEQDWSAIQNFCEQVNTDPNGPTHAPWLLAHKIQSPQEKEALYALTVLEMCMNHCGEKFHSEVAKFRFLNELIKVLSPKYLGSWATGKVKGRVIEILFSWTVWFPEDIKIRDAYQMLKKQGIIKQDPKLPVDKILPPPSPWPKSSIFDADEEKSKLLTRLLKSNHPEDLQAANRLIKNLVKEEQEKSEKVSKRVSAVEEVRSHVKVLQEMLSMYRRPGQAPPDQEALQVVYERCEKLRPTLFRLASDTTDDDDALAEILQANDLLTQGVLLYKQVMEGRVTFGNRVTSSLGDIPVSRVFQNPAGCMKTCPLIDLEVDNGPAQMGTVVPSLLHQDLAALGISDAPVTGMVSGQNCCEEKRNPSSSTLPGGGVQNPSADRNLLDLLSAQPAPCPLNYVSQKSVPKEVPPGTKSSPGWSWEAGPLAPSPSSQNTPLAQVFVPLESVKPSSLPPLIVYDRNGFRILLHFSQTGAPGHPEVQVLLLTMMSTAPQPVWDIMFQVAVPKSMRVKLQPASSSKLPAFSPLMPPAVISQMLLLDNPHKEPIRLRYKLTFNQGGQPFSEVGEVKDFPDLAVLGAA

Tests used:
Assay in all cases: log2 fold change, soluble protein after heating vs DMSO (PISA); higher = thermal stabilisation; K562 lysate, 10 uM; active = over 0.2 and 3.5 SD of the protein, either way, in both replicates (recomputed)
[1] = compound: Cc1cn(-c2cc(NC(=O)c3ccc(C)c(Nc4nccc(-c5cccnc5)n4)c3)cc(C(F)(F)F)c2)cn1 [nilotinib]
In short: (§1)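 Log-two fold change in thermal stability relative to solvent controls is reported from duplicates. For each sample, crude K562 extract from dounce-homogenised pellets in PBS pH 7.4 with 1 mM MgCl2, at 1 mg/mL protein, was treated with 10 μM compound for 30 min. Aliquots heated for 3 min across 48°C-58°C were pooled, brought to 0.5% NP-40 at 4°C and cleared at 21,000xg for 90 min. The supernatant was quantified by TMTpro 16plex LC-MS/MS with channel sums equalised.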

[2] = compound: Cc1nc(Nc2n[nH]c3c2CN(C(=O)N[C@H](CN(C)C)c2ccccc2)C3(C)C)c2sccc2n1
In short: as §1

[3] = compound: Cc1nc(Nc2ncc(C(=O)Nc3c(C)cccc3Cl)s2)cc(N2CCN(CCO)CC2)n1 [dasatinib]
In short: as §1

[4] = compound: Cc1ncc(-c2ccnc(Nc3ccc(S(C)(=O)=O)cc3)n2)n1C(C)C
In short: as §1

[5] = compound: Cn1cc(-c2ccc3c(c2)CCN3C(=O)Cc2cccc(C(F)(F)F)c2)c2c(N)ncnc21
In short: as §1

[6] = compound: Cn1cc(CNCC2CCN(c3ncc(C(=O)NO)cn3)CC2)c2ccccc21 [quisinostat]
In short: as §1

[7] = compound: Cn1cncc1[C@@](N)(c1ccc(Cl)cc1)c1ccc2c(c1)c(-c1cccc(Cl)c1)cc(=O)n2C [tipifarnib]
In short: as §1

[8] = compound: NC(=O)Nc1cc(-c2cccc(F)c2)sc1C(=O)N[C@H]1CCCNC1
In short: as §1

[9] = compound: NC(=O)c1cnc(N[C@@H]2CCCC[C@@H]2N)nc1Nc1cccc(-n2nccn2)c1
In short: as §1

[10] = compound: NC1(c2ccc(-c3nc4ccn5c(=O)[nH]nc5c4cc3-c3ccccc3)cc2)CCC1
In short: as §1

[11] = compound: NCC(=O)Nc1ccc(-n2nc(C(F)(F)F)cc2-c2ccc3c(ccc4ccccc43)c2)cc1
In short: as §1

[12] = compound: O=C(CCCCCCC(=O)Nc1ccccc1)NO [vorinostat]
In short: as §1

[13] = compound: O=C(O)c1ccc2c(c1)nc(Nc1cccc(Cl)c1)c1ccncc12 [silmitasertib]
In short: as §1

[14] = compound: O=C1NC(=O)C(c2cnc3ccccn23)=C1c1cn2c3c(cc(F)cc13)CN(C(=O)N1CCCCC1)CC2
In short: as §1

[15] = compound: c1cn2cc(-c3ccc4cn[nH]c4c3)nc(Nc3ccc(N4CCOCC4)cc3)c2n1 [entospletinib]
In short: as §1

| Target | log2 fold change [1] | log2 fold change [2] | log2 fold change [3] | log2 fold change [4] | log2 fold change [5] | log2 fold change [6] | log2 fold change [7] | log2 fold change [8] | log2 fold change [9] | log2 fold change [10] | log2 fold change [11] | log2 fold change [12] | log2 fold change [13] | log2 fold change [14] | log2 fold change [15] |
| --- | --- | --- | --- | --- | --- | --- | --- | --- | --- | --- | --- | --- | --- | --- | --- |
| FOXK2 (UniProt Q01167) | inactive: 0.01 | inactive: 0.017 | inactive: -0.052 | inactive: -0.006 | inactive: 0.051 | inactive: -0.034 | inactive: -0.027 | inactive: 0.078 | inactive: -0.029 | inactive: 0.05 | inactive: 0.049 | inactive: -0.125 | inactive: 0.02 | inactive: -0.019 | inactive: 0.001 |
| GEMIN2 (UniProt O14893) | inactive: -0.019 | inactive: 0.014 | inactive: -0.03 | inactive: 0.032 | inactive: -0.033 | inactive: 0.142 | inactive: 0.059 | inactive: 0.004 | inactive: -0.039 | inactive: 0.049 | inactive: 0.003 | active: -0.425 | inactive: 0.002 | inactive: 0.04 | inactive: -0.005 |
| GATD1 (UniProt Q8NB37) | inactive: 0.017 | inactive: -0.036 | inactive: -0.002 | inactive: 0.123 | inactive: 0.102 | inactive: -0.089 | inactive: 0.011 | inactive: 0.044 | inactive: -0.013 | inactive: -0.02 | inactive: -0.02 | inactive: 0.204 | inactive: -0.029 | inactive: 0.033 | inactive: 0.024 |
| GATAD2B (UniProt Q8WXI9) | inactive: 0.05 | inactive: 0.008 | inactive: -0.01 | inactive: 0.004 | inactive: 0.011 | inactive: -0.121 | inactive: -0.009 | inactive: 0.031 | inactive: 0.002 | inactive: -0.022 | inactive: 0.037 | inactive: -0.162 | inactive: -0.056 | inactive: 0.02 | inactive: -0.022 |
| GEMIN5 (UniProt Q8TEQ6) | inactive: -0.003 | inactive: -0.001 | inactive: -0.046 | inactive: 0.001 | inactive: 0.037 | inactive: -0.102 | inactive: 0.015 | inactive: 0.031 | inactive: 0.003 | inactive: -0.027 | inactive: 0 | active: -0.479 | inactive: 0.004 | inactive: -0.001 | inactive: 0.004 |
| GALNT7 (UniProt Q86SF2) | inactive: 0.032 | inactive: -0.02 | inactive: 0.011 | inactive: 0.004 | inactive: 0.02 | inactive: -0.021 | inactive: -0.016 | inactive: -0.04 | inactive: -0.008 | inactive: 0.005 | inactive: 0.028 | inactive: 0.156 | inactive: -0.037 | inactive: 0.005 | inactive: -0.034 |
| GDAP2 (UniProt Q9NXN4) | inactive: -0.056 | inactive: 0.077 | inactive: -0.026 | inactive: 0.09 | inactive: -0.029 | inactive: -0.085 | inactive: 0.05 | inactive: 0.008 | inactive: 0.02 | inactive: -0.048 | inactive: 0.012 | inactive: -0.278 | inactive: 0.035 | inactive: -0.015 | inactive: -0.016 |
| GCC1 (UniProt Q96CN9) | inactive: 0.008 | inactive: 0.028 | inactive: -0.049 | inactive: 0.075 | inactive: -0.034 | inactive: -0.04 | inactive: -0.012 | inactive: 0 | inactive: -0.036 | inactive: 0.077 | inactive: 0.023 | inactive: -0.082 | inactive: 0.016 | inactive: -0.024 | inactive: -0.036 |
| FYB1 isoform 3 (UniProt O15117) | inactive: 0.042 | inactive: 0.004 | inactive: -0.017 | inactive: -0.025 | inactive: 0.001 | inactive: -0.068 | inactive: -0.012 | inactive: 0.034 | inactive: 0.005 | inactive: 0.021 | inactive: 0.007 | inactive: 0.002 | inactive: -0.021 | inactive: 0 | inactive: -0.006 |
| GALC (UniProt P54803) | inactive: -0.019 | inactive: -0.029 | inactive: 0.077 | inactive: 0.025 | inactive: -0.053 | inactive: -0.085 | inactive: -0.067 | inactive: 0.145 | inactive: -0.055 | inactive: -0.032 | inactive: 0.027 | inactive: -0.043 | inactive: -0.025 | inactive: -0.073 | inactive: -0.005 |
| FRA10AC1 (UniProt Q70Z53) | inactive: 0 | inactive: -0.033 | inactive: 0.005 | inactive: -0.022 | inactive: 0.023 | inactive: 0.021 | inactive: 0.035 | inactive: -0.028 | inactive: 0.028 | inactive: -0.014 | inactive: 0.008 | inactive: 0.018 | inactive: 0.019 | inactive: -0.052 | inactive: -0.028 |
| GALNT12 (UniProt Q8IXK2) | inactive: 0.046 | inactive: -0.05 | inactive: -0.037 | inactive: 0.007 | inactive: 0.182 | inactive: 0.013 | inactive: -0.063 | inactive: 0.01 | inactive: -0.029 | inactive: 0.013 | inactive: 0.047 | inactive: 0.087 | inactive: 0 | inactive: -0.102 | inactive: -0.024 |
| GALK2 (UniProt Q01415) | inactive: 0.015 | inactive: 0.003 | inactive: -0.023 | inactive: 0 | inactive: 0.012 | inactive: -0.014 | inactive: 0.022 | inactive: 0.017 | inactive: 0.001 | inactive: 0.005 | inactive: 0.011 | inactive: -0.012 | inactive: 0.04 | inactive: 0.029 | inactive: -0.009 |
| GALNT1 (UniProt Q10472) | inactive: 0.007 | inactive: 0.115 | inactive: -0.024 | inactive: 0.004 | inactive: 0.029 | inactive: 0.043 | inactive: 0.018 | inactive: 0.007 | inactive: 0.025 | inactive: 0.035 | inactive: -0.021 | inactive: 0.027 | inactive: -0.014 | inactive: -0.007 | inactive: -0.035 |
| FSCN1 (UniProt Q16658) | inactive: 0.023 | inactive: -0.003 | inactive: 0.004 | inactive: 0.004 | inactive: 0.004 | inactive: 0.067 | inactive: 0.022 | inactive: -0.022 | inactive: -0.005 | inactive: 0.015 | inactive: -0.031 | inactive: 0.102 | inactive: 0.011 | inactive: 0.008 | inactive: 0.006 |
| GCSH (UniProt P23434) | inactive: 0.068 | inactive: 0.034 | inactive: 0.123 | inactive: -0.029 | inactive: 0.024 | inactive: -0.024 | inactive: -0.014 | inactive: 0.014 | inactive: -0.027 | inactive: -0.071 | inactive: 0.032 | inactive: 0.084 | inactive: 0.111 | inactive: 0.033 | inactive: 0.012 |
| GART (UniProt P22102) | inactive: -0.006 | inactive: -0.024 | inactive: -0.022 | inactive: -0.011 | inactive: 0.01 | inactive: 0.025 | inactive: 0.011 | inactive: 0.015 | inactive: 0.007 | inactive: 0.006 | inactive: 0.017 | active: -0.303 | inactive: 0.006 | inactive: 0.003 | inactive: 0.012 |
| GGA2 (UniProt Q9UJY4) | inactive: -0.028 | inactive: -0.047 | inactive: -0.043 | inactive: 0 | inactive: 0.032 | inactive: -0.022 | inactive: -0.003 | inactive: 0.066 | inactive: 0.043 | inactive: 0.001 | inactive: -0.042 | active: -0.313 | inactive: 0.016 | inactive: 0.022 | inactive: -0.026 |
| FOXRED1 (UniProt Q96CU9) | inactive: -0.003 | inactive: -0.025 | inactive: -0.044 | inactive: -0.051 | inactive: -0.017 | inactive: -0.021 | inactive: -0.011 | inactive: 0.005 | inactive: 0.018 | inactive: -0.032 | inactive: -0.031 | inactive: -0.021 | inactive: 0.011 | inactive: 0.006 | inactive: -0.023 |
